# Several values for one entry are separate records, joined by “and”; a condition that tells them apart may be missing. Equal entries are not always repeated. Some of the results follow. For some of these results: Construct or isoform of the protein are uncertain.
# The chains behind the UniProt entries cited, without tags or fusion partners. Where a name states a change or a piece, a line headed by the entry shows the natural chain unless it says otherwise.
# UniProt P32019: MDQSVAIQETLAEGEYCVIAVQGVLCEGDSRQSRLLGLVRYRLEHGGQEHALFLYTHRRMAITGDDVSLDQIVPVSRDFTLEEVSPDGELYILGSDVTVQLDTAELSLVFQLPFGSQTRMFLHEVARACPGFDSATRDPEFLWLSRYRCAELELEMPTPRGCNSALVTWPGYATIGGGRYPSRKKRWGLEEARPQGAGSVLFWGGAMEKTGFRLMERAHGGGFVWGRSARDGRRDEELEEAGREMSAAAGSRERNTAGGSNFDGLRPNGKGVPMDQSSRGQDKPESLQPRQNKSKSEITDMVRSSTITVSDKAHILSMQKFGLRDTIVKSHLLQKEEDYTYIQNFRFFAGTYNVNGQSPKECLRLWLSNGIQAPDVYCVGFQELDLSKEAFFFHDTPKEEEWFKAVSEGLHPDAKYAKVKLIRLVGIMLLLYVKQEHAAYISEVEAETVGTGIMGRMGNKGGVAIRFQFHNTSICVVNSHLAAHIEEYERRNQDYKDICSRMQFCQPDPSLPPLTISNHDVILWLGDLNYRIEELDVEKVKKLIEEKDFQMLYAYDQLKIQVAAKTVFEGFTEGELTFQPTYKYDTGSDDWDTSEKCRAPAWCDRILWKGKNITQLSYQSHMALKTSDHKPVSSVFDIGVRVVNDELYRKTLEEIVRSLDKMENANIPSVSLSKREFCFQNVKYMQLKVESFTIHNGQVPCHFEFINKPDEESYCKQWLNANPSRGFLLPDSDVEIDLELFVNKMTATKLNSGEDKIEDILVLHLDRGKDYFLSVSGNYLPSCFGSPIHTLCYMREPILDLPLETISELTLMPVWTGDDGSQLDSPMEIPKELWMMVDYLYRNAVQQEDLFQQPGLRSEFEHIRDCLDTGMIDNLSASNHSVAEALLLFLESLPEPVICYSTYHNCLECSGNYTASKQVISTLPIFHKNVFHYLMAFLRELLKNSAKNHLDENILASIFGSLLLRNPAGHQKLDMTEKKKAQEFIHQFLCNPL
# Experiments:
# Experiment in all cases: protein microarray (ProtoArray v5.0), streptavidin-Alexa Fluor 647
# Details in all cases: 3'-biotin; 20 mM Tris (pH 7.5), 5 mM MgCl2, 100 mM KCl, 0.1% Tween-20, A/T-rich and random oligonucleotide blockers; temperature not stated; high values mean tight binding
# IL7 (human) = tested on: IL7 (human)
# IL8RA (human) = tested on: IL8RA (human)
# ILVBL (human) = tested on: ILVBL (human)
# IMPA2 (human) = tested on: IMPA2 (human)
# IMPDH1 (human) = tested on: IMPDH1 (human)
# INDO (human) = tested on: INDO (human)
# ING3 (human) = tested on: ING3 (human)
# INPP1 (human) = tested on: INPP1 (human)
# INPP5B = INPP5B (UniProt P32019)
# INTS4 (human) = tested on: INTS4 (human)
sequence,measurement,setting,value
GGGAGGCTGAGGCAGG [G4-1 biotinylated (PQS2)],binding signal,IL7 (human),-0.345 z-score
same,binding signal,IL8RA (human),-0.321 z-score
same,binding signal,ILVBL (human),-0.312 z-score and -0.324 z-score
same,binding signal,IMPA2 (human),-0.252 z-score
same,binding signal,IMPDH1 (human),-0.336 z-score
same,binding signal,INDO (human),-0.321 z-score
same,binding signal,ING3 (human),-0.353 z-score
same,binding signal,INPP1 (human),-0.316 z-score
same,binding signal,INPP5B,-0.314 z-score
same,binding signal,INTS4 (human),-0.308 z-score

# Reference: PMC5996148
